From PMC7819943, “Rice protein-binding microarrays: a tool to detect cis-acting elements near promoter regions in rice”
Some of the results follow.

Sequences of proteins named here, by UniProt entry; tags and fusion partners are left off.
UniProt Q0JBA9, entry or part of it: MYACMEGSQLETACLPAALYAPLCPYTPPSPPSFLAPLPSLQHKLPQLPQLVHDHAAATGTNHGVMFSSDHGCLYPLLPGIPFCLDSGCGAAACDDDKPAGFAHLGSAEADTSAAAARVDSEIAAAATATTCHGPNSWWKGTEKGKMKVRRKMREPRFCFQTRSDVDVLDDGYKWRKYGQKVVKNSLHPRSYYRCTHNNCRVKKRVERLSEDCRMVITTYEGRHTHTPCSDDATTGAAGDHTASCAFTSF

biological target: OsWRKY34 (Oryza sativa, UniProt Q0JBA9 1-250); assay: protein-binding microarray (RPBM); PBS, 2% BSA, 51.3 ng/ul salmon testes DNA, 50 uM zinc acetate, 200 nM TF, 25 C, 1 h; high values mean tight binding; settings: protein: recombinant; tags: N-terminal polyhistidine and DsRed monomer fusion (pET32a); label: CyDye5-dUTP incorporated in the synthesized complementary strand; 3' TTTTT single-stranded linker to array surface; dsDNA, one strand shown
Outline: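 Binding signal is defined as the fluorescence intensity of each feature in arbitrary units, read on an Axon 4000B scanner. Transcription factors with N-terminal polyhistidine and DsRed fusions came from E. coli BL21-CodonPlus and were purified on Ni–NTA. They were incubated at 200 nM for 1 h at 25 °C on a custom Agilent array that had been made double-stranded with Cy5-dUTP, with 50 µM zinc acetate present, and the array was washed.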

Q: “CCTTCTTGATGACTTCATGTTCTTTTCTAAGTCATGTTAGCGGAGTCACCTAGTGCAG” was tested. Which binding signal did it give?
A: 12200 fluorescence intensity (a.u.)

Q: Which binding signal does the source give for “GGGAGACGCGGGTATTTGAACGCGCGGAGGGGAGGGGAGACGGAGTCACCTAGTGCAG” here?
A: 11500 fluorescence intensity (a.u.)

Q: Which binding signal does the source give for “GCCTTGGTGCAATTCACCTTTTCTTTGGTGCGATAAAATGCGGAGTCACCTAGTGCAG” here?
A: 9240 fluorescence intensity (a.u.)

Q: Which binding signal does the source give for “GTAGCCGAACACACCCATACATATTCTACTAATTTAAATACGGAGTCACCTAGTGCAG” here?
A: 8210 fluorescence intensity (a.u.)

Q: How did the binding signal turn out when “GCGATGTCCATGTTGATTTCCGGCCGGTCGCTCCATTGTCCGGAGTCACCTAGTGCAG” was run?
A: 11100 fluorescence intensity (a.u.)

Q: “GCATCATTGGAAGTGTAGAGTTTGCATTTATCCGTTTTCTCGGAGTCACCTAGTGCAG” was tested. Which binding signal did it give?
A: 8170 fluorescence intensity (a.u.)

Q: “GATACTGTTCTCATTTGCCATTTTAGTAATATGCCACTTCCGGAGTCACCTAGTGCAG” was tested. Which binding signal did it give?
A: 12000 fluorescence intensity (a.u.)

Q: Which binding signal does the source give for “TGTGTCTTTCATCTCGTTCGTCTCGAGCAGGCGGTTAACCCGGAGTCACCTAGTGCAG” here?
A: 9780 fluorescence intensity (a.u.)

Q: How did the binding signal turn out when “AGTGGGCCTGACTAATACTGTTTTTTTTTCCTTTTAATTTCGGAGTCACCTAGTGCAG” was run?
A: 9440 fluorescence intensity (a.u.)

Q: For “GAGGCGACTTTTTTTTGTGCTCTTTCTTTTACATATACCCCGGAGTCACCTAGTGCAG”, which binding signal is on record?
A: 9150 fluorescence intensity (a.u.)

Q: For “ACGCCAACCCGGATTCAAAACCTTTCCGCTACATTGACTGCGGAGTCACCTAGTGCAG”, which binding signal is on record?
A: 8360 fluorescence intensity (a.u.)

Q: “AAAAATCCAGACGCCGCGATGGGGTTGGGTTGGGTACTTGCGGAGTCACCTAGTGCAG” was tested. Which binding signal did it give?
A: 12000 fluorescence intensity (a.u.)

Q: For “TAATCATTGTAGTATTTCCTTTTTTTCTGTGTGTTGGGAACGGAGTCACCTAGTGCAG”, which binding signal is on record?
A: 13500 fluorescence intensity (a.u.)

Q: Which binding signal does the source give for “TCCATCGGTTCTCTGCTCTGTTCATCCATAGAGTTTCCTCCGGAGTCACCTAGTGCAG” here?
A: 8250 fluorescence intensity (a.u.)

Q: For “CGCCGTTGACTTTTTCTCACATGTTTGACCATTCGTCTTACGGAGTCACCTAGTGCAG”, which binding signal is on record?
A: 42500 ± 475 fluorescence intensity (a.u.)

Q: For “GGCTGGCTGGGTCGGTCGGGTTCTTTCTTGATCTGCATTTCGGAGTCACCTAGTGCAG”, which binding signal is on record?
A: 10800 fluorescence intensity (a.u.)

Q: With “ATAATAATATTTTTCACCTATGCCATACTTCTTTTGTCAACGGAGTCACCTAGTGCAG” as the sequence, how does the binding signal read?
A: 8040 fluorescence intensity (a.u.)

Q: With “TCGGTCAGTAACTCCCTGGCCCACCACCACTCTTCTTTGGCGGAGTCACCTAGTGCAG” as the sequence, how does the binding signal read?
A: 8320 fluorescence intensity (a.u.)

Q: For “GATTTGGTCTGGTTTGGTTGGAGGTTAGCTCGCCTCTGATCGGAGTCACCTAGTGCAG”, which binding signal is on record?
A: 19400 fluorescence intensity (a.u.)

Q: Which binding signal does the source give for “GCGGAGGGGAGGCGGAGGGGAGGCAGAGTAGGTAGAGGAGCGGAGTCACCTAGTGCAG” here?
A: 12000 fluorescence intensity (a.u.)

Q: “GACTCGAGCCCGTGCCGCACGGGGCATTTCCACCGTCGGACGGAGTCACCTAGTGCAG” was tested. Which binding signal did it give?
A: 8130 fluorescence intensity (a.u.)

Q: How did the binding signal turn out when “ATGATTTCGGGGATGTGCAGGGCTGGTGATCTGGACGGTGCGGAGTCACCTAGTGCAG” was run?
A: 15000 fluorescence intensity (a.u.)

Q: For “ATTTTGATTTAGACTAGCTTTTCTTTTTCTCAGTTTTATCCGGAGTCACCTAGTGCAG”, which binding signal is on record?
A: 11300 fluorescence intensity (a.u.)

Q: For “CCTCCATTTCTTTAGCGGTTGCCAAGGGTTCTTGAGCTGTCGGAGTCACCTAGTGCAG”, which binding signal is on record?
A: 9360 fluorescence intensity (a.u.)

Q: How did the binding signal turn out when “CCCGCTCAGCCCATGCGCCACCCGCCGCCGCGGCTGCCACCGGAGTCACCTAGTGCAG” was run?
A: 8500 fluorescence intensity (a.u.)

Q: For “ACTCTGCCGCCGCCACTCCACCACCACTCCGTCGCCGTGGCGGAGTCACCTAGTGCAG”, which binding signal is on record?
A: 8290 fluorescence intensity (a.u.)

Q: How did the binding signal turn out when “TGTCATCGTCATCTTCTCCAACGCCGGCCTATATATACCACGGAGTCACCTAGTGCAG” was run?
A: 9370 fluorescence intensity (a.u.)

Q: With “TCTTTATGAAGTCCTTGTCACAGTTGATGACTTGCTTAATCGGAGTCACCTAGTGCAG” as the sequence, how does the binding signal read?
A: 9070 fluorescence intensity (a.u.)

Q: For “CCACACTCCGTCGGCCACCTGCCCTACTCCTCCCTCCTCTCGGAGTCACCTAGTGCAG”, which binding signal is on record?
A: 8940 fluorescence intensity (a.u.)

Q: Which binding signal does the source give for “TGACGCCGGTGGGTTTGTGTGTTAGTGTGACATATGTGTGCGGAGTCACCTAGTGCAG” here?
A: 9130 fluorescence intensity (a.u.)

Q: With “GGGATTTTTATTTAGGATTTTCTTTTATCTGTATTTTTTTCGGAGTCACCTAGTGCAG” as the sequence, how does the binding signal read?
A: 8860 fluorescence intensity (a.u.)

Q: “AAAGAACCGATCACCATTCCATTTCGCTTCTCTCCCAGTTCGGAGTCACCTAGTGCAG” was tested. Which binding signal did it give?
A: 10700 fluorescence intensity (a.u.)

Q: For “TTGTTCCTTTACAGTTTACAGTCATCTCTATTGTAGTATTCGGAGTCACCTAGTGCAG”, which binding signal is on record?
A: 9770 fluorescence intensity (a.u.)

Q: How did the binding signal turn out when “GCCGCCACACCCGACTATTATGGCGACTACTCTCGGCCAGCGGAGTCACCTAGTGCAG” was run?
A: 9530 fluorescence intensity (a.u.)

Q: For “ATTATGCCATGATTTTCTTTTAAGTATACGAATACACATTCGGAGTCACCTAGTGCAG”, which binding signal is on record?
A: 8120 fluorescence intensity (a.u.)

Q: “CTCTTCTCGTAACTTTGATCTCTCTTATTGATGAACTCTTCGGAGTCACCTAGTGCAG” was tested. Which binding signal did it give?
A: 9540 fluorescence intensity (a.u.)

Q: Which binding signal does the source give for “CGTCATGCCTCACAGTTTTTCTTCTCTTTTTCCTTCTTCTCGGAGTCACCTAGTGCAG” here?
A: 8040 fluorescence intensity (a.u.)

Q: “CGGTTTGTTGAGATGGCCTCTCTCCCGTCGGATACTGTCGCGGAGTCACCTAGTGCAG” was tested. Which binding signal did it give?
A: 8700 fluorescence intensity (a.u.)

Q: Which binding signal does the source give for “GGTGCGTCGTGGGTGGATTCGGATGGTTGCTTGGTAGGATCGGAGTCACCTAGTGCAG” here?
A: 8160 fluorescence intensity (a.u.)

Q: With “CGTCCCCGGCCTCACCCCGGCCTCGCGTACGGAAGTCGTCCGGAGTCACCTAGTGCAG” as the sequence, how does the binding signal read?
A: 8810 fluorescence intensity (a.u.)

Q: For “AGACACCTGGCACAACACACATCGCCCATCTTACACGTGCCGGAGTCACCTAGTGCAG”, which binding signal is on record?
A: 8590 fluorescence intensity (a.u.)

Q: For “GGAATTGCGCGCGCGCTGGTGGAGGGAGACGGGTGGGGATCGGAGTCACCTAGTGCAG”, which binding signal is on record?
A: 10700 fluorescence intensity (a.u.)

Q: How did the binding signal turn out when “ACCATTGTCGCATGCTCACATCCCATCTTTTCCAAAGGGACGGAGTCACCTAGTGCAG” was run?
A: 10300 fluorescence intensity (a.u.)

Q: “CAAGGCAGCACAGAACAGAGCACTCCCTCTCCCACCACCACGGAGTCACCTAGTGCAG” was tested. Which binding signal did it give?
A: 8360 fluorescence intensity (a.u.)

Q: Which binding signal does the source give for “CATCGCTTCCCAGCCGCAGTTTTGACCGGGAGGATTCCATCGGAGTCACCTAGTGCAG” here?
A: 8240 fluorescence intensity (a.u.)

Q: With “GTGATGGGGTGAGCCAATTGGGTTGGGTTGGCTAGGCTGACGGAGTCACCTAGTGCAG” as the sequence, how does the binding signal read?
A: 8500 fluorescence intensity (a.u.)

Q: For “TAGAGAATTGATTGGGCTTTTGGTTGACTTCTTTGACACGCGGAGTCACCTAGTGCAG”, which binding signal is on record?
A: 11900 fluorescence intensity (a.u.)

Q: How did the binding signal turn out when “ATGTATGCACGATGTGAGTGTCCGTGTTTGTAATGTGTTTCGGAGTCACCTAGTGCAG” was run?
A: 11300 fluorescence intensity (a.u.)

Q: With “TCTTTAGGGGCAAATTTTGATGGTCAACGTATCCTCAGCACGGAGTCACCTAGTGCAG” as the sequence, how does the binding signal read?
A: 9510 fluorescence intensity (a.u.)

Q: “GTCCGTCTTATATAAAATTTTTTTATAATTTATATTTTCACGGAGTCACCTAGTGCAG” was tested. Which binding signal did it give?
A: 8500 fluorescence intensity (a.u.)

Q: Which binding signal does the source give for “AACAGCAGCAGCGTGGCGCCTTGACCGTTTGACCTCGCAACGGAGTCACCTAGTGCAG” here?
A: 9590 fluorescence intensity (a.u.)

Q: “TTTCTCTGCCTTTCTTTCTTCTATCGTCCATGCTTCATCACGGAGTCACCTAGTGCAG” was tested. Which binding signal did it give?
A: 9310 fluorescence intensity (a.u.)

Q: For “AACTACTTTCTTTTCATTACTAATGATCATCATATCTTTCCGGAGTCACCTAGTGCAG”, which binding signal is on record?
A: 9780 fluorescence intensity (a.u.)

Q: For “TGTGTGTGTGTGTGTGTGTGTGTGTGATGGATTAAAAAATCGGAGTCACCTAGTGCAG”, which binding signal is on record?
A: 8470 fluorescence intensity (a.u.)
